Binding data for 10 molecules are collected here from paper PMC12029333.

The assay has as its target T1, GST-PrkC (Serine/threonine-protein kinase PrkC) (Bacillus subtilis str. 168) (UniProt O34507).
T1 sequence: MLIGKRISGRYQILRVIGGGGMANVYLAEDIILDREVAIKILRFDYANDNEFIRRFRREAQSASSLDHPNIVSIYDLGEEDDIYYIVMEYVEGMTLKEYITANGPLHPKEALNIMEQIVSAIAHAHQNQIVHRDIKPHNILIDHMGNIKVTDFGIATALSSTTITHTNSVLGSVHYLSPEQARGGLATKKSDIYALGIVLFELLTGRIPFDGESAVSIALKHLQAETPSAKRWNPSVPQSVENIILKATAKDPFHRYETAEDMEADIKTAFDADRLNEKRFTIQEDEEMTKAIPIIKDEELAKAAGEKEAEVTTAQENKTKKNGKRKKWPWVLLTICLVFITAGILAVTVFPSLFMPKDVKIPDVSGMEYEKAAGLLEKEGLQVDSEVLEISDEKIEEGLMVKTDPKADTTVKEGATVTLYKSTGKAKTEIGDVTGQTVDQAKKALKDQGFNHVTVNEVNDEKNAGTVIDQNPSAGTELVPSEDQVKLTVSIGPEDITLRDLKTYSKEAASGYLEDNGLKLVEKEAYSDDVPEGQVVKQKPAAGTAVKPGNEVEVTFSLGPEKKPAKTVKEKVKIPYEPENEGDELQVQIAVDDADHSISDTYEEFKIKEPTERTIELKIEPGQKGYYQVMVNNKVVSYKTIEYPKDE
As to the kind of experiment: affinity purification with mass spectrometry; GST-PrkC on glutathione resin incubated with B. subtilis spore lysate at 4 °C; resin washed; bound proteins eluted with 20 mM reduced glutathione; eluate digested with trypsin and analysed by LC-MS/MS; hits filtered at 1% FDR, >=2 unique peptides; only the target purified.

No constants are given. Whether binding was seen depends on the method and setting. In cells and extracts the contact can be indirect. These calls come from enrichment with a bait or labelling near it, and not all partners need be listed. Tags and fused reporters may be left off the sequences shown.

B1: RQC P-site tRNA stabilizing factor (protein, UniProt P37557 1-86)
chain: MRLDKFLKVSRLIKRRTLAKEVADQGRISINGNQAKASSDVKPGDELTVRFGQKLVTVQVNELKDTTKKEEAANMYTILKEEKLGE
In the case of B1, the binding result was “binds”.

B2: Phage-like element PBSX protein XkdO (protein, UniProt P54334 1-1332)
chain: MAKLTARFDLEDKVSKKLKRIHKGFQEVEKKVKTINRQIKISIRAEDQAFYRLRKINDYIILKFAKSLEIKVVLDDQVTSKLDAIERKLKRLPKETKLTVSLVDRTAAAYKKIKKMLSNQKLSFLLIPDDKVTSTVKRIIGYIKKNLKNGYTVKLKVIDEITKTVNRLTALLRKFEKTYYVKVVVKTKISDKINKKESLINKETSKKESDKSSDKGSDKNSDQKPGWVGKIKGWLKDWWTKSAWPWIKDTLNEIGKAFLDRFKERLIEKLKNDVFDKIIDKILGPQKKDDSGENSDTDKKVLNRNTGGNCCCDCCEGGISPGTKNKKTYRKKKSPTKAPNRTLKVPGEVIRRRQSGTPAESAPRTSGSKLKNWLGGLKSLGKDSSKLGKAFRGMGKAVPYVGSALAVFDLAGINKDNAGEKVGSIGGRIAGAEAGATAGAEAGATIGSFVGPEGTAIGGAIGGIGGGLVGGIGGEEAGKNIGKMFDTSKLKESISNSLFNKEWWSGKWNSISDTANGAITWIEDTWSKVSTWFDQYVFTPIYNVAVPVINFIVGLFAYAWDGILAVWNIVYPWFKDNVWDPISGAVTNVATTIWTGLCNAWTVISGIWSTVSTWFMDNVWNPVSEAVTTAATWIWSKINDAWTIISNIWTGVSNWFYDNVWNPIVKKVEDIKTSIKEKFDDARKFFEDAWDGIETWFNEHVKDPLVKVSEKIAEKFQWLFDLKDSVGGFVAKVIHRGEEVTHLKKKPIKKDSKEKKTSSKPTTNNIFAQSPSNNNMTVFQQALDQNATGGYITKPTISWIGEAGKEFVIPVDNNRGRGKMLLSQAASKLGMQVVDDMGAASSSGGSPASVSGGAAVSPLSGTASPVMNTANLTGQASTLGQQFSEGFGKGISDQPVKMEDWKKKNINTPFTQMISASPNYGKQMVSGYAKGQSGTATGTDGFLQSKVKTPFQATVSKSSSWGTGTVKGFAQGQNSTQTGTAQYVSTHVDKPFLRSKDTSNSWGSGLIGNFVTGMNSKSSEVKQAAKDMAKRVEQAFREELDIHSPSRVMMSLGRFASVGVVKGLDSVDVKKYAEKQAGSLAAAYSGMGAVGGNVKQWLMAAIMATKTPLSWLSGLMTIAQYESGGNPNSINLWDSNAKAGNPSQGLMQTVPTTFNAHKAPGMGNIRNPIHNAAAAIGYIKSRYGSIDNVPGIKSLKRGGPYVGYANGGLITKEQIARVGEGNKREWIIPEERGIRGRYLLQRAAQALGMEVTDPSQSQQSELSSGQVSAVTSASRPTAAVSGSKEIYIQFNGDQHFHNGQDAESLAAKIKQALIDELQKDINIGTKGVVAFD
As for B2, the binding result is given as “binds”.

B3: Spore coat polysaccharide biosynthesis protein SpsG (protein, UniProt P39627 1-339)
chain: MHVGIFADGGYEKGMGHVVRMKRLAEGLKQRCLITFYTNQDSEAFLHEEHWQVIVKPELQQHEFILREIKSKKLDLLLFDILGAPAELLKKIKTETDAKIVLFEEKNGKSIQYSDAVINGIYGDIRSRVYVQGNTRIYEGPDYLILHPAFQAAREDYTLKKDCRNILVALGGSDPKQLIFKVLAAADQVPDIKDKNMMFVMGSASPHQEAVRRRIEKKPQYKMIEQTNDMAGLMKQADAAIVAGGISLYEAICIGVPCLVLSQVEHQTATAKTFADQGAALDLGLGELVPDETLIYQMSRIMSSYPLRLSLHKGGRPLVDGKGIIRVTAILQDLYEQEI
As for B3, the binding entry is recorded as “binds”.

B4: Serine protease AprX (protein, UniProt O31788 1-442)
chain: MFGYSMVQMVRANAHKLDWPLRETVLQLYKPFKWTPCFLHKFFETKLQNRKKMSVIIEFEEGCHETGFQMAGEVLQKEKRSKLKSRFNKINCCSAEVTPSALHSLLSECSNIRKVYLNREVKALLDTATEASHAKEVVRNGQTLTGKGVTVAVVDTGIYPHPDLEGRIIGFADMVNQKTEPYDDNGHGTHCAGDVASSGASSSGQYRGPAPEANLIGVKVLNKQGSGTLADIIEGVEWCIQYNEDNPDEPIDIMSMSLGGDALRYDHEQEDPLVRAVEEAWSAGIVVCVAAGNSGPDSQTIASPGVSEKVITVGALDDNNTASSDDDTVASFSSRGPTVYGKEKPDILAPGVNIISLRSPNSYIDKLQKSSRVGSQYFTMSGTSMATPICAGIAALILQQNPDLTPDEVKELLKNGTDKWKDEDPNIYGAGAVNAENSVPGQ
For the molecule B4, the binding result is on record as “binds”.

B5: Uncharacterized protein YcdC (protein, UniProt O34772 1-453)
chain: MVNKQLKKKAQEIGNVPTHYELEIEDYDQKQKKYGQAYFIWKDPKDPEKHITVELRNDGALLTFSTTVHSETDKKLPDAELKLTALQFAAANHPGTFMNFHFQGKEERGQHIRFVYTKMELGLPIPNSGFLIDMTRSGQIVHFLYYGEGHKAEVPTEFVAKEKVVSHYLNTMSFELMYDVIDGEQEPRLVYEPILPGYSYPADVDEIVPDQHIADERIENTAPLPPLQNKEEVDIFALLGFTSDMQKVSERDFGEQIGSTWRRGAAPERKDLSIGSYFETRNKNTIKMKTDKRTGKLKAALSFMDWRNNLQCSTEECQEIALQFLYALYPRAAEFFRVNPVRIDERGRVRNHFSVWYKGVPLRFGAARIIVNPETGLIDAFMAPDIEPEQLEAINHRPDVSAEEAKEAFLAAFDVKLEWQPDFTAGSDQHCKLVYKPVYPSYIDAHIRKKKRL
Regarding B5, the binding entry is “binds”.

B6: Putative aliphatic sulfonates transport permease protein SsuC (protein, UniProt P40401 1-276)
chain: MMKAEAAGSLPKTNAEAVRKKPGRKRYGWMKGLLLPAVIIAIWQVIGGLGVVSATVLPTPVTIVLTFKELILSGELFGHLQISIYRAALGFLLGAGLGLMIGILAGFSKRTELYLDPSLQMLRTVPHLAVTPLFILWFGFDEVSKILLIALGAFFPVYINTFNGIRGVDAKLFEVARVLEFKWHQQISKVILPAALPNILLGIRLSLGIAWLGLVVAELMGSSSGVGYMIMDARQFSQTNKVFAGIIIFAVVGKLTDSFVRLLERKLLKWRNSYEG
As for B6, the binding entry is reported as “binds”.

B7: Putative DNA recombinase (protein, UniProt P17867 1-500)
chain: MIAIYVRVSTEEQAIKGSSIDSQIEACIKKAGTKDVLKYADEGFSGELLERPALNRLREDASKGLISQVICYDPDRLSRKLMNQLIIDDELRKRNIPLIFVNGEYANSPEGQLFFAMRGAISEFEKAKIKERTSSGRLQKMKKGMIIKDSKLYGYKFVKEKRTLEILEEEAKIIRMIFNYFTDHKSPFFGRVNGIALHLTQMGVKTKKGAKVWHRQVVRQILMNSSYKGEHRQYKYDTEGSYVSKQAGNKSIIKIRPEEEQITVTIPAIVPAEQWDYAQELLGQSKRKHLSISPHNYLLSGLVRCGKCGNTMTGKKRKSHGKDYYVYTCRKNYSGAKDRGCGKEMSENKLNRHVWGEIFKFITNPQKYVSFKEAEQSNHLSDELELIEKEIEKTKKGRKRLLTLISLSDDDDLDIDEIKAQIIELQKKQNQLTEKCNEIQSKMKVLDDTSSSENALKRAIDYFQSIGADNLTLEDKKTIVNFIVKEVTIVDSDTIYIETY
For the molecule B7, the binding entry is recorded as “binds”.

B8: DNA translocase SpoIIIE (protein, UniProt P21458 1-787)
chain: MAKKKRKSRKKQAKQLNIKYELNGLLCIAISIIAILQLGVVGQTFIYLFRFFAGEWFILCLLGLLVLGVSLFWKKKTPSLLTRRKAGLYCIIASILLLSHVQLFKNLTHKGSIESASVVRNTWELFLMDMNGSSASPDLGGGMIGALLFAASHFLFASTGSQIMAIVMILIGMILVTGRSLQETLKKWMSPIGRFIKEQWLAFIDDMKSFKSNMQSSKKTKAPSKKQKPARKKQQMEPEPPDEEGDYETVSPLIHSEPIISSFSDRNEEEESPVIEKRAEPVSKPLQDIQPETGDQETVSAPPMTFTELENKDYEMPSLDLLADPKHTGQQADKKNIYENARKLERTFQSFGVKAKVTQVHLGPAVTKYEVYPDVGVKVSKIVNLSDDLALALAAKDIRIEAPIPGKSAIGIEVPNAEVAMVSLKEVLESKLNDRPDAKLLIGLGRNISGEAVLAELNKMPHLLVAGATGSGKSVCVNGIITSILMRAKPHEVKMMMIDPKMVELNVYNGIPHLLAPVVTDPKKASQALKKVVNEMERRYELFSHTGTRNIEGYNDYIKRANNEEGAKQPELPYIVVIVDELADLMMVASSDVEDSITRLSQMARAAGIHLIIATQRPSVDVITGVIKANIPSRIAFSVSSQTDSRTILDMGGAEKLLGRGDMLFLPVGANKPVRVQGAFLSDDEVEKVVDHVITQQKAQYQEEMIPEETTETHSEVTDELYDEAVELIVGMQTASVSMLQRRFRIGYTRAARLIDAMEERGVVGPYEGSKPREVLLSKEKYDELSS
For the molecule B8, the binding result was “binds”.

B9: Stage V sporulation protein AD (protein, UniProt P40869 1-338)
chain: MKLTGKQTWVFEHPIFVNSAGTAAGPKEKDGPLGSLFDKTYDEMHCNQKSWEMAERQLMEDAVNVALQKNNLTKDDIDLLLAGDLLNQNVTANYVARHLKIPFLCMFGACSTSMETVAVASALVDGGFAKRALAATSSHNATAERQFRYPTEYGGQKPDTATSTVTGSGAVVISQTPGDIQITSATVGKVSDLGITDPFDMGSAMAPAAADTIKQHFKDLNRTADDYDLILTGDLSGVGSPIVKDILKEDGYPVGTKHDDCGLLIYTPDQQVFAGGSGCACSAVVTYSHIFKQLREGKLNRVFVVATGALLSPTMIQQKETIPTIAHGVVFERAGGAS
As for B9, the binding entry is listed as “binds”.

B10: Iron-sulfur cluster assembly protein SufD (protein, UniProt O32165 1-437)
chain: MTLGTKLSVDQEYLKSFSEKHQEPAWLKNLRLQALEQAEDLPMPKPDKTKITNWNFTNFAKHTVDNEPLSSLEDLTDEVKALIDIENEDKTLYVQRDQTPAHLSLSQELKDKGVIFTDILTAAREHSDLVEKYFMKDGVKVDEHKLTALHAALVNGGAFLYVPKNVQVETPVQAVYVHESNDTALFNHVLIVAEDHSSVTYVENYISTVNPKDAVFNIISEVITGDNASVTYGAVDNLSSGVTTYVNRRGAARGRDSKIEWALGLMNDGDTISENTTNLYGDGTYGDTKTVVVGRGEQTENFTTQIIHFGKASEGYILKHGVMKDSASSIFNGIGKIEHGASKANAEQESRVLMLSEKARGDANPILLIDEDDVTAGHAASVGRVDPIQLYYLMSRGIPKEEAERLVIYGFLAPVVNELPIEGVKKQLVSVIERKVK
Turning to B10, the binding entry is “binds”.
